{"source": "PubChem BioAssay AID504795 (Drosophila RNAi Screening Center, 2011)", "screen": "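Knock-downs causing abnormal branching, bundling, swelling or growth of cultured neurons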 (primary screen)", "cell system": "primary Drosophila neurons and glia", "reagent": "long dsRNA against Drosophila genes, 250 ng dsRNA per well", "duration": "one week", "measurement": "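GFP-labelled neurons and glia imaged live by automated microscope one week after 250 ng dsRNA per well; morphology scored by eye as descriptive phenotype terms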", "note": "This is not the whole library: the list holds selected reagents. 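Every listed dsRNA shows some phenotype; how reagents were selected for listing is not stated.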 Names joined by + are all predicted targets of the reagent."}
{"gene": "CG7025", "dsRNA": "DRSC03002", "phenotype seen, replicate 1": "cell fragments present"}
{"gene": "Pits", "dsRNA": "DRSC19385", "phenotype seen, replicate 1": "axon bundles split apart"}
{"gene": "Polr1E", "dsRNA": "DRSC15358", "phenotype seen, replicate 1": "cell fragments present"}
{"gene": "CG10254", "dsRNA": "DRSC14153", "phenotype seen, replicate 1": "beaded; swollen axons"}
{"gene": "CG30495", "dsRNA": "DRSC06703", "phenotype seen, replicate 1": "too many neurite branches"}
{"gene": "spo", "dsRNA": "DRSC11127", "phenotype seen, replicate 1": "too many neurite branches"}
{"gene": "Smr", "dsRNA": "DRSC20288", "phenotype seen, replicate 1": "beaded; swollen axons"}
{"gene": "lilli", "dsRNA": "DRSC00708", "phenotype seen, replicate 1": "cell fragments present"}
{"gene": "CG17002", "dsRNA": "DRSC04978", "phenotype seen, replicate 1": "axon bundles split apart"}
{"gene": "CG15219", "dsRNA": "DRSC03715", "phenotype seen, replicate 1": "reduced axon outgrowth"}
{"gene": "CG42747", "dsRNA": "DRSC10209", "phenotype seen, replicate 1": "fewer cells"}
{"gene": "slp2", "dsRNA": "DRSC00836", "phenotype seen, replicate 1": "beaded; swollen axons"}
{"gene": "CG6569", "dsRNA": "DRSC16067", "phenotype seen, replicate 1": "axon bundles split apart"}
{"gene": "Sms", "dsRNA": "DRSC10408", "phenotype seen, replicate 1": "axon bundles split apart"}
{"gene": "CG12310", "dsRNA": "DRSC09878", "phenotype seen, replicate 1": "abnormal cell clusters"}
{"gene": "fry", "dsRNA": "DRSC10712", "phenotype seen, replicate 1": "sheet-like cell extensions"}
{"gene": "Nadk2", "dsRNA": "DRSC07072", "phenotype seen, replicate 1": "axon bundles split apart"}
{"gene": "modSP", "dsRNA": "DRSC21489", "phenotype seen, replicate 1": "too many neurite branches"}
{"gene": "eIF4G1", "dsRNA": "DRSC17218", "phenotype seen, replicate 1": "beaded; swollen axons"}
{"gene": "CG44837", "dsRNA": "DRSC10133", "phenotype seen, replicate 1": "abnormal cell clusters"}
{"gene": "Dbx", "dsRNA": "DRSC08270", "phenotype seen, replicate 1": "beaded; swollen axons"}
{"gene": "CG43867", "dsRNA": "DRSC17836", "phenotype seen, replicate 1": "reduced axon outgrowth"}
{"gene": "CG3704", "dsRNA": "DRSC18645", "phenotype seen, replicate 1": "too many neurite branches"}
{"gene": "CG5004", "dsRNA": "DRSC19929", "phenotype seen, replicate 1": "fewer cells"}
{"gene": "CG5004", "dsRNA": "DRSC19930", "phenotype seen, replicate 1": "axon bundles split apart"}
{"gene": "CG5004", "dsRNA": "DRSC20123", "phenotype seen, replicate 1": "axon bundles split apart"}
{"gene": "Alg13", "dsRNA": "DRSC14864", "phenotype seen, replicate 1": "reduced axon outgrowth"}
{"gene": "Lsp1alpha", "dsRNA": "DRSC20258", "phenotype seen, replicate 1": "axon bundles split apart"}
{"gene": "Rpn5", "dsRNA": "DRSC12367", "phenotype seen, replicate 1": "abnormal cell clusters"}
{"gene": "CG9393", "dsRNA": "DRSC16486", "phenotype seen, replicate 1": "axon bundles split apart"}
{"gene": "CG14787", "dsRNA": "DRSC18606", "phenotype seen, replicate 1": "sheet-like cell extensions"}
{"gene": "ORY", "dsRNA": "DRSC22883", "phenotype seen, replicate 1": "axon bundles split apart"}
{"gene": "CG11398", "dsRNA": "DRSC18625", "phenotype seen, replicate 1": "too many neurite branches"}
{"gene": "CG11889 + CG11891", "dsRNA": "DRSC14426", "phenotype seen, replicate 1": "abnormal cell clusters"}
{"gene": "Rpn1", "dsRNA": "DRSC11274", "phenotype seen, replicate 1": "axon bundles split apart"}
{"gene": "CCT4", "dsRNA": "DRSC02865", "phenotype seen, replicate 1": "axon bundles split apart"}
{"gene": "CG42493", "dsRNA": "DRSC05309", "phenotype seen, replicate 1": "abnormal cell clusters"}
{"gene": "RpL12", "dsRNA": "DRSC04344", "phenotype seen, replicate 1": "too many neurite branches"}
{"gene": "galla-1", "dsRNA": "DRSC05987", "phenotype seen, replicate 1": "beaded; swollen axons"}
{"gene": "CG33232 (retired record)", "dsRNA": "DRSC08495", "phenotype seen, replicate 1": "reduced axon outgrowth"}
{"gene": "CG10650", "dsRNA": "DRSC02085", "phenotype seen, replicate 1": "abnormal cell clusters"}
{"gene": "CG12341", "dsRNA": "DRSC06133", "phenotype seen, replicate 1": "too many neurite branches"}
{"gene": "CG31121", "dsRNA": "DRSC15363", "phenotype seen, replicate 1": "axon bundles split apart"}
{"gene": "CG7512", "dsRNA": "DRSC10863", "phenotype seen, replicate 1": "axon bundles split apart"}
{"gene": "CG34165", "dsRNA": "DRSC01970", "phenotype seen, replicate 1": "cell fragments present", "phenotype seen, replicate 2": "abnormal cell clusters"}
{"gene": "Cap-G", "dsRNA": "DRSC21805", "phenotype seen, replicate 1": "axon bundles split apart"}
{"gene": "Phae1", "dsRNA": "DRSC02554", "phenotype seen, replicate 1": "axon bundles split apart"}

In a second layout: 2 of the entries above.
| gene | dsRNA | phenotype seen, replicate 1 | phenotype seen, replicate 2 |
| --- | --- | --- | --- |
| CG7025 | DRSC03002 | cell fragments present | – |
| Pits | DRSC19385 | axon bundles split apart | – |
